The list shows a part of the results.
B1: il2ra_site2_3nfp_sap_23_mot_HHH_b2_08245_000000023_0001_41_55_H_._HHH_b2_01389_0001_0000100012_0000001_0_0001 (protein)
chain: SSSSKAHEYLRVALELAKLALEEGDPEVAREIAETALQAAESANDPELFEEIEELLEEIEGSSSS
B2: il2ra_site1_1z92_normal_mot_HHH_b2_00385_000000257_0001_1_19_H_._HHH_b1_07316_0001_0000100006_0000001_0 (protein)
chain: SSSSSWHEEILESLERSLRRLLEEGNEKSLEKALEFLEKAAKENNDEEALEFVEELKERLSSSSS
B3: il2ra_site2_2erj_sap_11_mot_HHH_b2_02572_000000148_0001_42_59_H_._HHH_b2_02950_af2_0001_0000200009_0000001_0_0001 (protein)
chain: SSSSDEEAARLALEVTEELLRLWEEGNPEEVEKLAEEAERRLEELGSPNLARFIELALRDLSSSS
B4: il2ra_site1_2b5i_sap_9_mot_HHH_b2_00231_000000175_0001_20_36_H_._HHH_b2_06598_af2_0001_0000300021_0000001_0_0001_af2pred_dldesign_0_af2pred (protein)
chain: SSSSSDPYDEVIRLFKEAQKLWREGKKEEAKEVLEKALEVAKKLKDDVIVAELERLLELLSSSSS
B5: il2ra_site2_3nfp_sap_9_mot_HHH_b2_00729_000000274_0001_42_55_H_._HHH_b1_06795_af2_0002_0000100002_0000001_0_0001 (protein)
chain: SSSSSESEEYLRAALLLLELAIEHGDEHAFESTLEAVRLAAESNNDEEVEKRVEELEKEFKSSSS
B6: il2ra_site1_3nfp_sap_16_mot_HHH_b1_07204_af2_000000187_0001_41_55_H_._HHH_b1_05536_0001_0000300023_0000001_0_0001 (protein)
chain: SSSSTEEMAKRSREIMELIKEGDHEEAEELARELLKEAREMGDKVARWLLEQLLERIEAASSSSS
B7: il2ra_site1_1z92_normal_mot_HHH_b2_03658_000000138_0001_39_56_H_._HHH_b2_00767_0001_0000100004_0000001_0 (protein)
chain: SSSSDKELEYLEEQIRRALERGSKKLAQKLIEMVRELAEFADDDEARRVAEELQEILEELSSSSS
B8: il2ra_site1_1z92_normal_mot_01209686ea234b34325f918445e6eade_0001_af2_000000154_0001_18_33_H_._HHH_b2_05878_0001_0000400061_0000001_0_af2pred_0001_af2pred (protein)
chain: SSSSSSLEEEAEEIVKELVKEYNLSEEDEELLRLAAENAVRAGFSEHSIERALRDFAERLSSSSS
B9: il2ra_site2_2erj_normal_mot_9d722f4281fe2ab0f1894ca7efdbd281_0001_1_000000254_0001_1_13_H_._a87409d3d07ab778cdfa687b5837bbba_0001_af2_0001_0001000009_0000001_0 (protein)
chain: DIRDVLRILERLFRNNPELKELLEEAEELLERGNPEEAVKVLERVLREAGVPPWFREALEHQAKQ
B10: il2ra_site1_2b5i_sap_9_mot_HHH_b2_02740_000000236_0001_1_21_H_._HHH_b1_02398_0001_0000300016_0000001_0_0001 (protein)
chain: SSSSDDELFHEIDELFREASRLFLNGNPEEAEKVLEKAIRLAEEGGDESTAEDLRRFLELLSSSS
B11: il2ra_site1_1z92_sap_9_mot_c9a8daa1dfea21d1414aecde54be4f54_0001_1_af2_000000024_0001_32_46_H_._0e4f66a3c4b070984708d3e1d5382b02_0001_1_af2_0001_0000100008_0000 … (protein)
chain: SSSSTDELARVAVRIVAEVFRQFNLSDEEFEELIRLADELLLKGYSEEEIREILEELAEKSSSSS
B12: il2ra_site1_3nfp_normal_mot_HHH_b2_05178_af2_000000174_0001_1_19_H_._HHH_b1_00627_af2_0001_0000200014_0000001_0 (protein)
chain: SSSSDREARRLLQEALRLAINGNPEEAKEVAEEAEKVAREEGNESLRKHIELLLKAIELLLSSSS
B13: il2ra_site1_3nfp_normal_mot_0eddeacbb14b769e73e254714f31e2f9_0001_af2_000000052_0001_37_51_H_._2ccf0a1412af474efb002135fd3db7a6_0001_af2_0001_0000300024_0000001 … (protein)
chain: NDADRLIKEAIRLDPRFADLLYRLMRLLIKNPDDEELLEALEEVVELILEGDPEEARKVAEEILK
B14: il2ra_site1_3nfp_normal_mot_HHH_b1_00042_af2_000000196_0001_42_57_H_._HHH_b2_07681_0001_0000900023_0000001_0_af2pred_0001_af2pred_1 (protein)
chain: SSSSDEASKEAEELIREIQRLLKEGNPEEARKLLEELEELAERLNDPILKRLVEILERRINSSSS
B15: il2ra_site2_3nfp_sap_17_mot_9f76941e31d6374ac6cec9652f83b6d3_0001_af2_000000073_0001_37_65_H_._0edc931bf049704647aa1156905c945d_0001_1_0001_0000300023_0000001_0 … (protein)
chain: SSSSKAEEYVEAAIELAKLALEAGDPEAARSSLEAAKQAAEDNRDPELERLVEELEEELNSSSSS
B16: il2ra_site1_1z92_normal_mot_HHH_b1_01250_000000104_0001_1_17_H_._9d722f4281fe2ab0f1894ca7efdbd281_0001_1_af2_0001_0000600030_0000001_0 (protein)
chain: DEEIRKVDRLVLRNPRAAELFLELMKLRWKGDPRFEEVEEELEEVLKKLGIPPEDVELILKVANQ
B17: il2ra_site1_3nfp_sap_17_mot_HHH_b1_06312_000000077_0001_1_18_H_._HHH_b2_05980_af2_0001_0000400032_0000001_0_0001 (protein)
chain: SSSSDVEERVKELLEEAKELLEEGNPQEAARVLHEAWRLAAEANDPELSQAVYRVMREIAHSSSS
B18: il2ra_site1_2b5i_normal_mot_HHH_b2_04910_000000118_0001_1_19_H_._HHH_b1_00806_af2_0001_0000300023_0000001_0_af2pred_0001_af2pred (protein)
chain: SSSSDEEKEEAHKLFEEANELARNGNPEEARKALEEAEKLAEEGNSPSLLKSIRAALRLAQSSSS
B19: il2ra_site2_3nfp_sap_19_mot_HHH_b1_00660_af2_000000199_0001_40_57_H_._HHH_b2_04465_0001_0000500014_0000001_0_0001 (protein)
chain: SSSSDEEVEELKKEIEELIKEGDTYEAMQLLEELLKLALELNDPEADKAVLELYKLINDRYSSSS

Biological target: il2ra, P01589
Test: yeast display titration

| Binder | apparent Kd |
| --- | --- |
| B1 | inactive: no binding seen |
| B2 | inactive: no binding seen |
| B3 | inactive: no binding seen |
| B4 | inactive: no binding seen |
| B5 | inactive: no binding seen |
| B6 | inactive: no binding seen |
| B7 | inactive: no binding seen |
| B8 | inactive: no binding seen |
| B9 | inactive: no binding seen |
| B10 | inactive: no binding seen |
| B11 | inactive: no binding seen |
| B12 | inactive: no binding seen |
| B13 | inactive: no binding seen |
| B14 | inactive: no binding seen |
| B15 | inactive: no binding seen |
| B16 | inactive: > 1710 nM |
| B17 | inactive: no binding seen |
| B18 | inactive: > 1500 nM |
| B19 | inactive: no binding seen |

Given with bars between the fields: entries from further up
Binder | apparent Kd
B2 | inactive: no binding seen
B11 | inactive: no binding seen

From PMC10163288
